Measurements taken from the supplement of paper PMC4635364.
Where a name gives a salt, the structure may show the parent alone. Some of the results follow. This data set is noisy: repeats of one test often differ as much as different tests do.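 Human fetal ventral-midbrain neural progenitor line ReNCell VM, differentiated without mitogens. Images stained for doublecortin (early neurons) or tyrosine hydroxylase (dopaminergic neurons) were scored by blinded raters against untreated wells (0 = no change). Repeats and both raters were averaged, and compounds averaging 2 or higher were picked as hits for retesting.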

These molecules were tested on ReNCell VM (assay: neuronal differentiation score (DCX+ cell fraction vs untreated, manual image score) (score (-3 to 3)); higher = more neuronal differentiation). Settings: library: Tocriscreen; 2 uM; 2 weeks.

Neuronal differentiation score, inactive:
CC(C)(C)c1ccc(/C=C/C(=O)Nc2ccc3c(c2)OCCO3)cc1 0
CCn1c(=O)[nH]c2cc(Cl)c(Cl)cc21 0
Oc1cc(O)cc(/C=C/c2ccc(O)c(O)c2)c1 [Piceatannol] 0
COC(=O)C1=C(C)NC(C)=C(C(=O)OC(C)C)C1c1cccc2nonc12 (stereo not given) [Isradipine] 0
O=c1c(O)c(-c2ccc(O)cc2)oc2cc(O)cc(O)c12 [Kaempferol] 0
COc1ccccc1N1CCN(CCCCN2C(=O)c3ccccc3C2=O)CC1 [NAN-190 hydrobromide] 0
OCc1cc(C(O)CNCCCCCCOCCCCc2ccccc2)ccc1O (stereo not given) [Salmeterol] 0
CC(C)N(CCC(=O)c1ccc2ccccc2c1)Cc1ccccc1 0
Nc1nc2ccc(OC(F)(F)F)cc2s1 [Riluzole hydrochloride] 0
COc1cc2c(CCNC(C)=O)c[nH]c2cc1Cl [6-Chloromelatonin] 0
CCCN(CC1CC1)c1nc(C)nc(Nc2c(Cl)cc(Cl)cc2Cl)c1Cl 0
CN[C@H]1CC[C@@H](c2ccc(Cl)c(Cl)c2)c2ccccc21 [Sertraline hydrochloride] 0
OC[C@H]1O[C@@H](n2cnc3c(N[C@H]4CCC[C@@H]4O)ncnc32)[C@H](O)[C@@H]1O -3
O=C1Nc2ccc(I)cc2/C1=C/c1cc(Br)c(O)c(Br)c1 0
C1COC(NC(C2CC2)C2CC2)=N1 [Rilmenidine hemifumarate] 0
CN1CCN2c3ccccc3Cc3ccccc3C2C1 (stereo not given) [Mianserin hydrochloride] 0
COc1ccc(CCCOC(Cn2ccnc2)c2ccc(OC)cc2)cc1 (stereo not given) 0
NCCCCNCCCN [Spermidine trihydrochloride] 0
O=C(O)c1cc(=O)c2c(Cl)cc(Cl)cc2[nH]1 [5,7-Dichlorokynurenic acid] 0
CSc1ccc2c(c1)C(N1CCN(C)CC1)Cc1ccccc1S2 (stereo not given) [Methiothepin maleate] 0

3 compounds from above, arranged by length of the SMILES, falling:
Neuronal differentiation score, inactive:
OC[C@H]1O[C@@H](n2cnc3c(N[C@H]4CCC[C@@H]4O)ncnc32)[C@H](O)[C@@H]1O -3
COc1cc2c(CCNC(C)=O)c[nH]c2cc1Cl [6-Chloromelatonin] 0
C1COC(NC(C2CC2)C2CC2)=N1 [Rilmenidine hemifumarate] 0
